Percent effect of library compounds

Values are the deposited “Percent Effect”, in %.
The controls that fix the scale are not given in the record; negative values are as filed.
The compounds are a random part of those screened.

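Whole-parasite assay of Trypanosoma brucei over 72 hours; the read-out is not stated. Concentration: 30 µM. The record gives no direction; compounds that gave an IC50 in retests scored well above the rest, so higher reads as stronger inhibition. Values scatter widely below zero; nearly all retest evidence comes from the higher of the two concentrations used. About 64,000 compounds were tested under these conditions; 1.5% (about 940) showed 50% or more at least once.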

| structure | percent effect |
|---|---|
| `CCCc1nc(C)c(C(=O)NC2CCN(C3CC3)C2)s1` (stereo not drawn) | -3.297% |
| `Cn1cccc1C(=O)N1CCCn2nc(CCC(=O)NC3CC3)cc2C1` | -15.92% |
| `Cc1cc(C)n(NC(=O)c2cccc3c2OCC3)c(=O)c1` | -4.025% |
| `OC1(CN2CCCCC2)CCN(c2nccc(C(F)(F)F)n2)C1` (stereo not drawn) | -7.146% |
| `O=C(C1CCC1)N1CCC2(CCCN2CC2CC2)CC1.O=C(O)C(F)(F)F` | -53.73% |
| `CN1CC(C(=O)NCc2cccnc2OCc2ccccc2)CC1=O` (stereo not drawn) | -7.349% |
| `Cc1nc2cc(-c3nccn3C)nn2c(N2CCCC2)c1C` | 28.46% |
| `Cc1cc(CN2CCc3cncnc3C2)on1` | -65.51% |
| `CCc1cc(CN2CCC(CCC(=O)Nc3ccccc3Cl)CC2)on1` | -37.44% |
| `COc1cccc2c1ccn2CCNC(=O)C(C)C` | 36.72% |
| `COCC(=O)N1CCC(C(=O)Nc2ccc(C(C)=O)cc2)CC1` | 11.8% |
| `CCOc1ccccc1CNS(=O)(=O)c1ccc2c(c1)CCCC(=O)N2` | -20.78% |
| `Cc1ccnc(C2(C)CCCN2S(=O)(=O)c2ccccc2)n1` (stereo not drawn) | -1.727% |
| `O=C(c1cccs1)N1CC(Oc2ccccc2Cl)C1` | 3.093% |
| `CC(Cn1ccnc1)NC(=O)N(C)Cc1ccco1` (stereo not drawn) | -9.303% |
| `COc1cccc(CCC(=O)N2CCN(CC(C)(C)O)CC2)c1` | -31.23% |
| `[H][C@@]12OCCN(C(=O)COc3ccccc3)[C@@]1([H])CC[C@@H]2OCC` | -40.13% |
| `COc1cc(OC)cc(N2CCC(NCc3cc[nH]n3)C2)c1` (stereo not drawn) | 9.624% |
| `FC(F)(F)c1cccc(CN2CCOC[C@H](Oc3cccnc3)C2)c1` | -3.562% |
| `CNC(=O)CCN(C)CC1(c2ccc(Br)cc2)CC1` | -16.44% |
| `CCCN1C(=O)c2ccccc2C1OC` (stereo not drawn) | -17.77% |
| `Cc1ccccc1OCC(=O)N1CCN(C2CCOC2=O)CC1` (stereo not drawn) | -14.58% |
| `COCC(=O)Nc1ccc(-c2noc([C@@H]3CCCN3)n2)cn1` | -20.9% |
| `NC(=O)CN1CCc2c(Br)ccc(F)c2C1` | -39.4% |
| `CC(C)Cc1nc(CN2CCOC(Cn3cncn3)C2)no1` (stereo not drawn) | -11.84% |
| `CNc1nc2c(s1)C(c1c(Cl)cccc1Cl)CC(=O)N2` (stereo not drawn) | 20.87% |
| `CCN(CC)C(=O)c1nnn(-c2ccc(C)cc2)c1C1CC1` | -3.173% |
| `O=C1CC2(CCN(Cc3ncc[nH]3)CC2)CN1Cc1ccc(Cl)cc1` | -28.24% |
| `O=C(O)C(F)(F)F.O=C(O)C(F)(F)F.[H][C@@]12CCCO[C@]1([H])[C@@H](OCCN(C)C)CN2Cc1ccc(C)o1` | -71.63% |
| `O=C(Cc1ccccc1)NCc1ccc(-c2ccccc2C(=O)O)cn1` | 5.075% |
| `O=C(c1ccn(-c2cccc(F)c2)n1)N1CCCC(n2cccn2)C1` (stereo not drawn) | -4.708% |
| `O=C(O)C(F)(F)F.[H][C@@]12C[C@H](C(=O)NC)[C@@]([H])(CN(Cc3ccc(C)cc3)C1)O2` | 3.04% |
| `[H][C@]12CC[C@]([H])(CN(c3cnccn3)C1)N(C(=O)c1sc(NC)nc1C)C2` | -23.46% |
| `CCCc1nccn1-c1cccc(C(C)O)c1` (stereo not drawn) | -16.05% |
| `O=C(NCCn1ccnc1)c1cc(Br)c[nH]1` | -26.13% |
| `[H][C@@]12CN(c3ccccc3)C(=O)N1CCN(C1CCN(C(C)=O)CC1)C2` | -3.856% |
| `N#Cc1cc(F)ccc1CN1CCCCC1Cn1cncn1` (stereo not drawn) | -27.21% |
| `CN(C)c1ncc(-c2cccc(C(N)=O)c2)c(C2CNCCO2)n1.Cl` (stereo not drawn) | -4.213% |
| `CCN(CC)CCCC(C)NC(=O)c1cccnc1-n1cccn1` (stereo not drawn) | -47.18% |
| `CCc1csc(C2CCCN(C(=O)C3=NN(CC)C(=O)CC3)C2)n1` (stereo not drawn) | 17.79% |
| `[H][C@@]12CS(=O)(=O)C[C@]1([H])N(Cc1ncc[nH]1)CCN2CC1CC1` | -11.12% |
| `COc1ccc2c(c1)OCC(CNc1cc(N)nc(SC)n1)C2` (stereo not drawn) | 19.54% |
| `Cn1c2c(ccc1=O)CC(Nc1ncc(F)cn1)CC2.O=C(O)C(F)(F)F` (stereo not drawn) | -10.02% |
| `Cn1cnc(S(=O)(=O)N2CCCC2c2cnccn2)c1` (stereo not drawn) | -10.49% |
| `c1cncc(CN2CCCC3(COCCN(c4cncnc4)C3)C2)c1` (stereo not drawn) | -219.1% |
| `Cc1cc(=O)n2nc(Oc3ccc(F)c(F)c3)sc2n1` | -14.16% |
| `COc1cc(CNc2ccc(Cl)cc2)ccc1OCC(=O)O` | -16.35% |
| `CC(C)(C)NC(=O)COc1ccc(Oc2ccccn2)cc1` | -23.8% |
| `Cc1ccc(C2C3=C(COC3=O)Nc3[nH]nc(C)c32)cc1C` (stereo not drawn) | 39.99% |
| `Cc1nc(CCCNC(=O)c2c(F)cccc2Br)n[nH]1` | -9.939% |
| `CN(CCC(F)(F)F)C(=O)[C@H]1CSCN1C(=O)OC(C)(C)C` | -41.71% |
| `c1cnn(CCNCc2cnc(N3CCOCC3)nc2)c1` | -11.21% |
| `CCc1cnc(N2CCCC(CCC(N)=O)C2)nc1` (stereo not drawn) | -40.9% |
| `Cc1ccc2nc(C)c(C)c(C(=O)NCCCn3cnnc3)c2c1` | 11.18% |
| `O=C(O)C(F)(F)F.[H][C@@]12CCCO[C@]1([H])[C@H](NC(=O)N(C)C)CN2C1CCOCC1` | -26.86% |
| `CCCc1nc(C(C)(C)NC(=O)C2CC(=O)N(C3CC3)C2)no1` (stereo not drawn) | -24.74% |
| `CC1CCCN(CCNC(=O)c2ccn(-c3cccc(F)c3)n2)C1` (stereo not drawn) | 1.994% |
| `[H][C@@]12CCN(Cc3cnn(C)c3)C[C@@]1([H])[C@H](C(=O)Nc1cnccn1)CCO2` | -12.45% |
| `O=C1CCCN1CCc1noc(-c2ccc3[nH]cnc3c2)n1` | -18.58% |
| `NC(=O)c1cccc(CS(=O)(=O)CC(O)Cn2cccn2)c1` (stereo not drawn) | -39% |
| `COCCNc1nc(NCCc2ccccc2)nc2nccnc12` | 30.69% |
| `Cc1nc(C(=O)N2CCN(S(=O)(=O)N(C)C)CC2)c(-c2ccccc2)s1` | -18.83% |
| `Nc1nccnc1C1CN(C(=O)c2ccc3c(c2)OCO3)CCO1` (stereo not drawn) | -27.01% |
| `CCc1noc(C2CCCCN2C(=O)c2ccoc2C)n1` (stereo not drawn) | -10.19% |
| `Cc1ccccc1N1CCCN(C(=O)CC2CN(C(C)C)CCO2)CC1` (stereo not drawn) | -14.32% |
| `CN(Cc1cc2n(n1)CCNC2)Cc1cc(-c2ccccn2)no1` | -39.66% |
| `O=S(=O)(c1cc2ccccc2o1)N1CCCC1` | -9.573% |
| `CNC(=O)C1(c2cnccn2)CCCN1C(=O)c1cccnc1OC` (stereo not drawn) | 6.451% |
| `COc1cccc2c1OCC(C(=O)NCCn1nc(C)c(Cl)c1C)C2` (stereo not drawn) | -100% |
| `CN1CC2(CNCCN(C(=O)Nc3ccccc3)C2)CC1=O.O=C(O)C(F)(F)F` (stereo not drawn) | -7.598% |
| `Cc1nc(-c2c(-c3ccccc3)ncn2[C@H]2C[C@@H](C(=O)O)N(C)C2)co1` | 5.56% |
| `CCN(C(=O)c1ccc2nnc(C3CCN(CCOC)C3)n2c1)C(C)C.O=C(O)C(F)(F)F` (stereo not drawn) | -16.59% |
| `Cc1cc(C)n(CC2CCCN2C(=O)CCc2ccco2)n1` (stereo not drawn) | 9.007% |
| `CCn1nc(C)c2c1cnn2CC(=O)N1CCN(C)CC1` | 0.2141% |
| `Cn1ccn2ncc(C(=O)NCc3cccnc3N3CCCC(O)C3)c12` (stereo not drawn) | -17.17% |
| `CN(C)c1cccc(C(=O)Nc2cnn(Cc3ccncc3)c2)c1` | -12.7% |
| `CC(C)(C)CNCC1(O)CCCN(Cc2ccccc2F)C1=O` (stereo not drawn) | -12.23% |

Some entries from above, unchanged:

structure	percent effect
Cn1cccc1C(=O)N1CCCn2nc(CCC(=O)NC3CC3)cc2C1	-15.92%
CN(C)c1cccc(C(=O)Nc2cnn(Cc3ccncc3)c2)c1	-12.7%
CCCc1nccn1-c1cccc(C(C)O)c1 (stereo not drawn)	-16.05%
CCOc1ccccc1CNS(=O)(=O)c1ccc2c(c1)CCCC(=O)N2	-20.78%

From ChEMBL document CHEMBL3988442, “University of Dundee, Small-Polar-MMV Screening Library” (2021).